Among the data in PMC2868802 are binding values, retold here.

Amino acid sequences for entries named in this document (tags omitted). A change or cut given only in a name is not applied to a line headed by its entry. Residues count along the entry.
UniProt Q9NBK5: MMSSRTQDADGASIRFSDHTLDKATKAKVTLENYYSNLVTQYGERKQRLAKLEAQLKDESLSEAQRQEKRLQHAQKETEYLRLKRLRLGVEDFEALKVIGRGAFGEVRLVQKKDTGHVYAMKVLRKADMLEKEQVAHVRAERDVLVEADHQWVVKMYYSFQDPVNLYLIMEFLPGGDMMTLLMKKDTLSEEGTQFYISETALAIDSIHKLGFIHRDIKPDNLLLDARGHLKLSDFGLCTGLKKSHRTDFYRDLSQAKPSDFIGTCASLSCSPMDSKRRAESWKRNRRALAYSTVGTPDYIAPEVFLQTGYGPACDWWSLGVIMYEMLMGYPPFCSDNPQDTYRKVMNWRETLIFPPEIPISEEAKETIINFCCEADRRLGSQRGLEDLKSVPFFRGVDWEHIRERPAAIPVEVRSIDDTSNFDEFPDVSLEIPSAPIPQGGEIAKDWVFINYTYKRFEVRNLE
truncated Trc (amino acids 1-404): residues 1-404 of Q9NBK5
smaller Trc protein (amino acids 1-337): residues 1-337 of Q9NBK5
UniProt Q9VT28: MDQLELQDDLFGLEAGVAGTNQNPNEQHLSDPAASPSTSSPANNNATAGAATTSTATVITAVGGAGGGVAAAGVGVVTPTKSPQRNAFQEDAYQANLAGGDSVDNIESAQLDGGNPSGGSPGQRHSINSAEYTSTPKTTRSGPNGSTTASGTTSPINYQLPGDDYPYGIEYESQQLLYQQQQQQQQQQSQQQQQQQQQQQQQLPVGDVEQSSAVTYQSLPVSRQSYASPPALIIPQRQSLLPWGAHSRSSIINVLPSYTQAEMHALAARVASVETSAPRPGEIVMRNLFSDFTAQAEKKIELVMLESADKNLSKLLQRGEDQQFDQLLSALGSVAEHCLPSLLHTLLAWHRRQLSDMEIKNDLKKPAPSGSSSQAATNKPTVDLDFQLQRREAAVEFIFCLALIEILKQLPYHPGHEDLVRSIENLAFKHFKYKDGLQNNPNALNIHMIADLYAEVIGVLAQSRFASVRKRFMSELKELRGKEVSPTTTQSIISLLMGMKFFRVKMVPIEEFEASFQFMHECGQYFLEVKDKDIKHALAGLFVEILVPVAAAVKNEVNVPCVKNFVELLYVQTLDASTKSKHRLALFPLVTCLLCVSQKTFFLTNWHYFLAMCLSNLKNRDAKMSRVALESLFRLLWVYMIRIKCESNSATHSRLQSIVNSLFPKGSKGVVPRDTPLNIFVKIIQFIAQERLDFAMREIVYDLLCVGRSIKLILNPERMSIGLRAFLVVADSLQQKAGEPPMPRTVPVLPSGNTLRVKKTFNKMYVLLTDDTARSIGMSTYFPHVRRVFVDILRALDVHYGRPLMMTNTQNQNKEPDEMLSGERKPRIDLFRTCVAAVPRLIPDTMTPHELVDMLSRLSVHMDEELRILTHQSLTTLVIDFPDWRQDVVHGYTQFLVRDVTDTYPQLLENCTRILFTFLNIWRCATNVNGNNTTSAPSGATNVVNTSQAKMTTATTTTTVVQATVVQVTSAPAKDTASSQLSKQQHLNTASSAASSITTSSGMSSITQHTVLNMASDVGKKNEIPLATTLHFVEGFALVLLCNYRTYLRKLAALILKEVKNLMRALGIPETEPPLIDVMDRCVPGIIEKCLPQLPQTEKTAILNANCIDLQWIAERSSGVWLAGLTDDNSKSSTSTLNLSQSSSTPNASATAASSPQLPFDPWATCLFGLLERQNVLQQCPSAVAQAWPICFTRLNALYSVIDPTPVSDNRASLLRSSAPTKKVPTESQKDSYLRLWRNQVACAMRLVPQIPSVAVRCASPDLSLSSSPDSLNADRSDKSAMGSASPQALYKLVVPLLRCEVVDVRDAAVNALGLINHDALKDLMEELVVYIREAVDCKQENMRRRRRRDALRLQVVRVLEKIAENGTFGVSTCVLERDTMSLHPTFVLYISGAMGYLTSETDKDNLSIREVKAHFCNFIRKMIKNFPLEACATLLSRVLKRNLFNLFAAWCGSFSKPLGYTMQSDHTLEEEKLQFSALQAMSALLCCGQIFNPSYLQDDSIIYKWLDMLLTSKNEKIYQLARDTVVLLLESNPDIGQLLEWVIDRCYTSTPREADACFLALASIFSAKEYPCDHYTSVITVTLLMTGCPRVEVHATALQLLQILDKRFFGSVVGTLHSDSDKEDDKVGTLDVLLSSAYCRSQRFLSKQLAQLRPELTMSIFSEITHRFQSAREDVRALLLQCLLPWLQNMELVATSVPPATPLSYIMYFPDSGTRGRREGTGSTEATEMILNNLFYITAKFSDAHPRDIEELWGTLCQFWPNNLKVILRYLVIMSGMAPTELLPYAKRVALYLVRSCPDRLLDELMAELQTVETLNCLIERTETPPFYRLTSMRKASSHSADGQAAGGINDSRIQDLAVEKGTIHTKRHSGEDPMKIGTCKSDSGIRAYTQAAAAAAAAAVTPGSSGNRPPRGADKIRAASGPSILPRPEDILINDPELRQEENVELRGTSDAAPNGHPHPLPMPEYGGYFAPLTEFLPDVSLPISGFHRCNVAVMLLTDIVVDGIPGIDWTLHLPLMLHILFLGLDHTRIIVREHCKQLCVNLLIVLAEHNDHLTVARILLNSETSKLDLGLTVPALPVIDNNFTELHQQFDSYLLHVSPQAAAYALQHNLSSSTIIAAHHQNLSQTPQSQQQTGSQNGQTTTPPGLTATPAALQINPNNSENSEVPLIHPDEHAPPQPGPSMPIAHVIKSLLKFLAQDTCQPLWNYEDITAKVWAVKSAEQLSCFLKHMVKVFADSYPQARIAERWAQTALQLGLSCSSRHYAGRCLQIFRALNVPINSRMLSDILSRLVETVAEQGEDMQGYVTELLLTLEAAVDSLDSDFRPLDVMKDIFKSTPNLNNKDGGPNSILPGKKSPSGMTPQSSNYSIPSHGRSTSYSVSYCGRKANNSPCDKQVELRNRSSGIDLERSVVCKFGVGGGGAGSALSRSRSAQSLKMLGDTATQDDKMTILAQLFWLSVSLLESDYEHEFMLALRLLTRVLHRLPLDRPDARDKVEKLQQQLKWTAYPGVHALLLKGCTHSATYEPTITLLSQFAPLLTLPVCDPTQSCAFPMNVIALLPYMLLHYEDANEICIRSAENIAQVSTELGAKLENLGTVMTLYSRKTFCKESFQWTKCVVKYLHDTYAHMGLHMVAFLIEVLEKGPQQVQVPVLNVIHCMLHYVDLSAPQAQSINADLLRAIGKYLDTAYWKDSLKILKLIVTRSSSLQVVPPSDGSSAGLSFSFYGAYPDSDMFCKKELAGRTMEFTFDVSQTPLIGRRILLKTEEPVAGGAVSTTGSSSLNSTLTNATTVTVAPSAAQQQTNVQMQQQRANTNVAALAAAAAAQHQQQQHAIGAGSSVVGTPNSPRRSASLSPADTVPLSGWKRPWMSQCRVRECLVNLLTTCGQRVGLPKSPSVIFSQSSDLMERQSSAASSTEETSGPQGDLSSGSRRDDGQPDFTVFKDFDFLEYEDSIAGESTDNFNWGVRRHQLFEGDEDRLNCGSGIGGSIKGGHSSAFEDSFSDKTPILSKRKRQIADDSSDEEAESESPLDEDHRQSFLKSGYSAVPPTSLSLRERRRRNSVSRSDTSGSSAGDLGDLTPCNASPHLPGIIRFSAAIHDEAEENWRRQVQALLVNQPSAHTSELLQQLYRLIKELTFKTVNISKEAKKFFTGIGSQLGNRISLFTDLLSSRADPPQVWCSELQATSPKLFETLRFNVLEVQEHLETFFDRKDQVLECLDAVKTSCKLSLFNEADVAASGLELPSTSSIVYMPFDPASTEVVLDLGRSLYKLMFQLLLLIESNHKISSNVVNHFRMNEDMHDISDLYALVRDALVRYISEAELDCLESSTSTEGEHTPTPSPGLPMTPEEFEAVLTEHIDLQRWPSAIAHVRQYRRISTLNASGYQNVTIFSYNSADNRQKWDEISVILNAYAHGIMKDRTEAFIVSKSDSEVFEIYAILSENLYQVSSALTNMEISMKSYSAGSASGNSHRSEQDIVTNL

These are yes or no findings as the source states them, for the method shown. For some of these results: In cells and extracts the contact can be indirect. Some results given as binding are weak or reduced against the parent protein; the word gives no strength.

In assay [1] the target is Trc-FLAG (Drosophila) (UniProt Q9NBK5). The experiment in a line: co-IP; extracts of wing discs of transgenic flies expressing both proteins by actin-GAL4; Trc-FLAG pulled down by rabbit anti-FLAG, blot probed with mouse anti-GFP or mouse anti-Myc.
The target in assay [2] is smaller Trc protein (amino acids 1-337) (Drosophila) (UniProt Q9NBK5). The experiment in a line: two-hybrid; Matchmaker GAL4 two hybrid system 3 (Clontech); N-Fry in pGADT7, Trc proteins in pGBKT7; scored as interacting by complementation for growth and induction of beta-galactosidase.
The target of assay [3] is truncated Trc (amino acids 1-404) (Drosophila) (UniProt Q9NBK5). Described as above.

“Myc-Fry-GFP (from UniProt Q9VT28 1-3479)”: the binding entry in assay [1] is on record as “binds”.
With “Myc-N-Fry (transgene in flies) (from UniProt Q9VT28 1-1637) (domain or fragment)”, the binding result in assay [1] is “binds”.
Consider “amino terminal fragment of Fry (amino terminal 1637 amino acids) in pGADT7 (from UniProt Q9VT28 1-1637) (domain or fragment)”, for which the values for the binding result in assay [2] and in assay [3] were “no binding” and “binds”, respectively.
